The results in this text go back to article PMC11026472.

By UniProt entry, the sequences of proteins in these tests, tags left out. Residues count along the entry.
UniProt P21802, residues 22-821: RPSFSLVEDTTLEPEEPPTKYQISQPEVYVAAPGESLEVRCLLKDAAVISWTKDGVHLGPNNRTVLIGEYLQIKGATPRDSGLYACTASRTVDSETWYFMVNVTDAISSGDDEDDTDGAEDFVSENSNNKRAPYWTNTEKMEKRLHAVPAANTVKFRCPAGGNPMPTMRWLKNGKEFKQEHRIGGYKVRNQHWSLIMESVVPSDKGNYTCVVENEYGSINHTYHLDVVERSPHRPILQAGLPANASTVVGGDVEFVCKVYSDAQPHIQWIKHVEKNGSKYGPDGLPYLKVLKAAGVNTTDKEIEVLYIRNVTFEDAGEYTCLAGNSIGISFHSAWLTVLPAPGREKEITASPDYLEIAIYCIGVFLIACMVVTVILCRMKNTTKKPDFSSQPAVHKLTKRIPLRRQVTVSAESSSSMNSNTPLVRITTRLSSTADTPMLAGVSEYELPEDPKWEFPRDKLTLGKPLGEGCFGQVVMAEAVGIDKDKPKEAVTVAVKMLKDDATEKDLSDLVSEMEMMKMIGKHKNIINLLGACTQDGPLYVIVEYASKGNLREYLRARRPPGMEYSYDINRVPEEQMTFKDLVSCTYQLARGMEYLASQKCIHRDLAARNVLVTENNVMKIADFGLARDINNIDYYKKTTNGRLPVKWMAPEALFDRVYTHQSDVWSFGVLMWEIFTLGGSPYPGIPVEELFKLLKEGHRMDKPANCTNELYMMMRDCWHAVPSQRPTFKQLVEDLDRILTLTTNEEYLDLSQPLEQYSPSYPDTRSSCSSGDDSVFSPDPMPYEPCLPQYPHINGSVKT

No constants are given. Whether binding was seen depends on the method and setting. Binding seen in cells or lysates may run through a third protein. Some entries that bind do so weakly or less than the wild type.

For the assay, the target named is T1, FGF5 (human (endogenous in NPC tissues)) (UniProt P12034).
T1 sequence: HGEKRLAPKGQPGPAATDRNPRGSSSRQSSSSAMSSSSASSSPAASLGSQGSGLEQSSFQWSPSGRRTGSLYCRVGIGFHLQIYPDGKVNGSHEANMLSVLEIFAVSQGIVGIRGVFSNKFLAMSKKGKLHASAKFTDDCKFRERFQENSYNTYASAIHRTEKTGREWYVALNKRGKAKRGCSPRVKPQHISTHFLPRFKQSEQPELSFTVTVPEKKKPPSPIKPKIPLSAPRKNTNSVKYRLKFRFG
Nature of the assay: co-IP; NPC tumor tissue lysate incubated with anti-FGF5 antibody or normal rabbit IgG at 4 °C overnight, Protein A/G agarose 4 h at 4 °C; FGFR1, FGFR2, FGFR3, FGFR4 and FGF5 detected by western blot.

For the substance “FGFR2 (from UniProt P21802 22-821) (receptor)”, the binding result is “binds”.
